From article PMC9346485
These are yes or no findings as the source states them, for the method shown. In cells and extracts the contact can be indirect. Some results given as binding are weak or reduced against the parent protein; the word gives no strength.

The chains behind the UniProt entries cited, without tags or fusion partners.
UniProt Q8R4B8: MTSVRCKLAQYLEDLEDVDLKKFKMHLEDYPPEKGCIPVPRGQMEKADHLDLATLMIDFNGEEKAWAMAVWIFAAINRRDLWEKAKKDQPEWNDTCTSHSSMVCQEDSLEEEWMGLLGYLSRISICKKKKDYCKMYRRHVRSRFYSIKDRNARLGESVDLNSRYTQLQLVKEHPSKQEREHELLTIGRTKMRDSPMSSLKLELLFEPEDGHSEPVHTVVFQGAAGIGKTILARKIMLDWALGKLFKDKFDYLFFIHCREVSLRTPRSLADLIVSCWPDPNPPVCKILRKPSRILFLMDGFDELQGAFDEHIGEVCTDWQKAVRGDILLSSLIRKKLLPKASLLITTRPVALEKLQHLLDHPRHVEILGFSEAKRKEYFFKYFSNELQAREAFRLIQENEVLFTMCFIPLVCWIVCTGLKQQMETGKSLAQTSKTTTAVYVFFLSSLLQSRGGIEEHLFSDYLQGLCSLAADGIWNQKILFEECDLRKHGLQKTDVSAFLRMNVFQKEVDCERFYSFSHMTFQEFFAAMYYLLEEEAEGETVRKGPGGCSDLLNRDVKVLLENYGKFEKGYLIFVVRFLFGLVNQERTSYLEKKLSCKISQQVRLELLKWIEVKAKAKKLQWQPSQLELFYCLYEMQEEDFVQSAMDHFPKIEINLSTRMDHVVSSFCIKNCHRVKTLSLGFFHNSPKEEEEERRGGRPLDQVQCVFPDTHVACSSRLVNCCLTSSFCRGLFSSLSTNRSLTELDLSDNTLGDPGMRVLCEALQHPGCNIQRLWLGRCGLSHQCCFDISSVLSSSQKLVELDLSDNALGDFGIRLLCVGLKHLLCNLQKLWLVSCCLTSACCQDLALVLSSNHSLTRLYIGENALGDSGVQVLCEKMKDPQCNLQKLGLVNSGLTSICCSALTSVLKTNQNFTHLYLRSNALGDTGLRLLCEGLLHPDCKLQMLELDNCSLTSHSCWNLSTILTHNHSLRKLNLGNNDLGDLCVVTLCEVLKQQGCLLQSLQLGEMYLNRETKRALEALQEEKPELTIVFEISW

B1: caspase‐1 (protein, UniProt P29452 1-402)
chain: MADKILRAKRKQFINSVSIGTINGLLDELLEKRVLNQEEMDKIKLANITAMDKARDLCDHVSKKGPQASQIFITYICNEDCYLAGILELQSAPSAETFVATEDSKGGHPSSSETKEEQNKEDGTFPGLTGTLKFCPLEKAQKLWKENPSEIYPIMNTTTRTRLALIICNTEFQHLSPRVGAQVDLREMKLLLEDLGYTVKVKENLTALEMVKEVKEFAACPEHKTSDSTFLVFMSHGIQEGICGTTYSNEVSDILKVDTIFQMMNTLKCPSLKDKPKVIIIQACRGEKQGVVLLKDSVRDSEEDFLTDAIFEDDGIKKAHIEKDFIAFCSSTPDNVSWRHPVRGSLFIESLIKHMKEYAWSCDLEDIFRKVRFSFEQPEFRLQMPTADRVTLTKRFYLFPGH
B2: caspase‐1 p10‐fragment (domain or fragment, UniProt P29452 315-402)
chain: GIKKAHIEKDFIAFCSSTPDNVSWRHPVRGSLFIESLIKHMKEYAWSCDLEDIFRKVRFSFEQPEFRLQMPTADRVTLTKRFYLFPGH

Biological target: NLRP3 (mouse (endogenous in HoxB8 macrophages)) (UniProt Q8R4B8)
Assay: co-IP; NLRP3 immune precipitated from lysates of HoxB8 macrophages with a magnetic bead-coupled antibody; cells untreated or treated with LPS or LPS + GM-CSF for 12 h; beads without NLRP3 antibody as negative control; western blot for NLRP3 and caspase-1

Binder	binding
B1	binds
B2	binds
